Experimental data from US7521527B2 (Societe de Conseils de Recherches et d'Applications …, priority 2003, dated 2009).

Tests used:
[1] = general procedure: Boc solid-phase peptide synthesis; 4-methylbenzhydrylamine (MBHA) resin, 0.91 mmol/g; HBTU/DIEA; conditions: whole synthesis, analytical HPLC, scale of the general procedure 0.20 mmol
[2] = general procedure: Boc solid-phase peptide synthesis; MBHA resin; HBTU/DIEA; conditions: whole synthesis, scale 0.20 mmol

Substance: (Aib^8,35, Arg^26,34)hGLP-1(7-36)NH2
- final HPLC purity [1]: 99%

Substance: (Aib^8,35, Arg^34)hGLP-1(7-36)NH2
- final HPLC purity [1]: 99%

Substance: (Aib^8,^35, Arg^26,^34, Phe^31 )hGLP-1(7-36)NH2
- isolated mass [2]: Approximately 18 mg
- final HPLC purity [1]: 99%

Substance: (Aib^835, Arg^26,34, 2Nal^31)hGLP-1(7-36)NH2
- final HPLC purity [1]: 99%

Substance: (Aib^8,35, Phe^31, Arg^34)hGLP-1(7-36)NH2
- final HPLC purity [1]: 99%

Substance: (Aib^8,35, Arg^26)hGLP-1(7-36)NH2
- final HPLC purity [1]: 99%

Substance: (Aib^8, Arg^26,34, β-Ala^35)hGLP-1(7-36)NH2
- final HPLC purity [1]: 97%

Substance: (Aib^8,35, Arg^2, Phe^3 )hGLP-1 (7-36)NH2
- final HPLC purity [1]: 99%
